One experiment concerns the target T1, DnaC (B. subtilis) (UniProt P37469).
T1 sequence: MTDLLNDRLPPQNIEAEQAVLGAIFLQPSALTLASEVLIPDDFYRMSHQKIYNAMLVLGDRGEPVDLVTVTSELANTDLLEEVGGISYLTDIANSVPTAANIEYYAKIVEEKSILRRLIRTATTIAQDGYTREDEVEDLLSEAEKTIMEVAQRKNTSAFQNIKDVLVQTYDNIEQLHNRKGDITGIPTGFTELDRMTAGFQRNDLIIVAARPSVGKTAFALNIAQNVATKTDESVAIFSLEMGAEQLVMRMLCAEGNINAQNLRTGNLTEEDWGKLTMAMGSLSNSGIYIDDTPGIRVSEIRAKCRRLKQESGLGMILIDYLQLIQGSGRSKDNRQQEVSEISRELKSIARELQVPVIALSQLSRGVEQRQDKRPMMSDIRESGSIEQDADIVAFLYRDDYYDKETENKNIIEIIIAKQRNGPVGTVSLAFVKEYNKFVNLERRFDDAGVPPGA
Put plainly: two-hybrid; Gal4 system in yeast PJ69-4A/PJ69-4α: BD baits (pGBDU-C1) mated with the AD-fusion B. subtilis genomic library (pGAD) or with AD fusions; growth on SC-LUH with 0.5 mM 3-aminotriazole and on SC-LUA at 30°C; hits retested in binary specificity matings.

Another experiment addresses T2, SalA (B. subtilis 168) (UniProt P50863).
T2 sequence: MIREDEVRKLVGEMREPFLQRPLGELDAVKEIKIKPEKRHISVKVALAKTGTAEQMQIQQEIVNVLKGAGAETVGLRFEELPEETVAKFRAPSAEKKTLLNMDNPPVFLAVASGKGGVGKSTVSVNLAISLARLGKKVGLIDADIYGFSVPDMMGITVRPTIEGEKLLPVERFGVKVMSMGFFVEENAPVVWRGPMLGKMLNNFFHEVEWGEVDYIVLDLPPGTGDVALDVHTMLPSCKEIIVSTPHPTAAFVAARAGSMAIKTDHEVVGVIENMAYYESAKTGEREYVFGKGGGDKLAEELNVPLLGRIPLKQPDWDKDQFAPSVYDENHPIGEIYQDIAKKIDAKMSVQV
The description is as above.

The target in experiment [1] is T3, DnaC (of the co-purified DnaC/I complex) (B. subtilis 168) (UniProt P37469).
T3 sequence: T1 sequence
Put plainly: co-purification; DnaC/I complex co-purified for the phosphorylation assay; bait, tag and conditions not told.

A further experiment addresses T4, PrkD (B. subtilis) (UniProt O31435).
T4 sequence: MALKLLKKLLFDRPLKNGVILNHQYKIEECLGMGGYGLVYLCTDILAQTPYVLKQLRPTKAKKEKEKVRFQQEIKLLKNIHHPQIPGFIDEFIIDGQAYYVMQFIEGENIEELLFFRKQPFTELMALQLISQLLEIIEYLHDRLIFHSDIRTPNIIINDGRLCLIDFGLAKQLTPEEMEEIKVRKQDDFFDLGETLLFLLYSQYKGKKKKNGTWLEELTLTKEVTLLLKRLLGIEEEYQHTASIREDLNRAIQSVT
Briefly: two-hybrid; Gal4 system in yeast PJ69-4A/PJ69-4α: BD baits (pGBDU-C1) mated with the AD-fusion B. subtilis genomic library (pGAD) or with AD fusions; growth on SC-LUH with 0.5 mM 3-aminotriazole and on SC-LUA at 30°C; hits retested in binary specificity matings.

The next experiment addresses T5, PtpZ (B. subtilis 168) (UniProt P96717).
T5 sequence: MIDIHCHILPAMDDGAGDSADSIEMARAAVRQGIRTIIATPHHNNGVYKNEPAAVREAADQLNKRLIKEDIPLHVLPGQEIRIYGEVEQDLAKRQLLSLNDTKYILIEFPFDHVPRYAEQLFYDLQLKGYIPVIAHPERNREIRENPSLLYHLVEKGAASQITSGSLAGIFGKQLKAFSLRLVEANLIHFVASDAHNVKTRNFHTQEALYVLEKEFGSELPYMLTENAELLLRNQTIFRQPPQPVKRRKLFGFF
The experiment is described as above.

The target in another experiment is T6, MinD (B. subtilis 168) (UniProt Q01464).
T6 sequence: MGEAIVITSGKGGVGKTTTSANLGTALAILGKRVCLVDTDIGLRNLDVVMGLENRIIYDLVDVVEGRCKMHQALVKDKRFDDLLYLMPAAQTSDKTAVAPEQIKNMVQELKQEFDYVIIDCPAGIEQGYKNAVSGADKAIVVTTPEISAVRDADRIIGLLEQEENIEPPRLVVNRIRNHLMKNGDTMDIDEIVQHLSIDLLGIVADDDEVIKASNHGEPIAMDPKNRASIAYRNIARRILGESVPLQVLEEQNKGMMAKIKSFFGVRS
The description is as above.

The next experiment deals with T7, SpoIIE (B. subtilis 168) (UniProt P37475).
T7 sequence: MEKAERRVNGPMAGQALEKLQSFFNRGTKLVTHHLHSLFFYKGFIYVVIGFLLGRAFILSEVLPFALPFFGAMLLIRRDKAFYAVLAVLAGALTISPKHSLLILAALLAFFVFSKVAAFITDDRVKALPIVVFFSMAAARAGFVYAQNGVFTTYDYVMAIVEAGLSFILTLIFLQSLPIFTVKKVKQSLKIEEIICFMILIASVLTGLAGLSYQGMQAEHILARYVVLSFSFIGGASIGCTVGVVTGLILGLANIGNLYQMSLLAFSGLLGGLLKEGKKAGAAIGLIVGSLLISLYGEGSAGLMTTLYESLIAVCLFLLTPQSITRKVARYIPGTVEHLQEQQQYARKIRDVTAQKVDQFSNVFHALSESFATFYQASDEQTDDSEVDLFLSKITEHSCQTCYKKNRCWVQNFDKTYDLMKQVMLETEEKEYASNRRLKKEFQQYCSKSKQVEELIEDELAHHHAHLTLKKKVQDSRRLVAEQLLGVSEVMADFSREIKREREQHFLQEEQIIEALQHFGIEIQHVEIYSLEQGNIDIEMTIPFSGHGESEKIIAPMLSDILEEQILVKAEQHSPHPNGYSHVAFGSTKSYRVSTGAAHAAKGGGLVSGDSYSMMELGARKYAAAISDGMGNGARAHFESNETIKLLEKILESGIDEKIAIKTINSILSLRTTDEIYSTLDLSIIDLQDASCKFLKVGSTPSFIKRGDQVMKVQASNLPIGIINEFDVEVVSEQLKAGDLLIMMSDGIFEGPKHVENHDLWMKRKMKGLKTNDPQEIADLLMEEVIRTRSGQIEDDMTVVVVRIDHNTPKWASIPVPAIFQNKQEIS
Described as above.

Results are given in words; binding and its absence hold for the method and conditions named. Some entries that bind do so weakly or less than the wild type.

B1: PrkD (enzyme, UniProt O31435 1-256)
chain: T4 sequence
B1: the binding entry with DnaC (B. subtilis) and with SalA (B. subtilis 168) was “binds” in each case.

B2: DnaI (of the co-purified DnaC/I complex) (protein, UniProt P06567 1-311)
chain: MEPIGRSLQGVTGRPDFQKRLEQMKEKVMKDQDVQAFLKENEEVIDQKMIEKSLNKLYEYIEQSKNCSYCSEDENCNNLLEGYHPKLVVNGRSIDIEYYECPVKRKLDQQKKQQSLMKSMYIQQDLLGATFQQVDISDPSRLAMFQHVTDFLKSYNETGKGKGLYLYGKFGVGKTFMLAAIANELAEKEYSSMIVYVPEFVRELKNSLQDQTLEEKLNMVKTTPVLMLDDIGAESMTSWVRDEVIGTVLQHRMSQQLPTFFSSNFSPDELKHHFTYSQRGEKEEVKAARLMERILYLAAPIRLDGENRRHP
With B2, the binding result in experiment [1] is “binds”.

B3: RsbT (enzyme, UniProt P42411 1-133)
chain: MNDQSCVRIMTEWDIVAARQLGRNVAKELGFGTVDQARITTAISELARNIYLYAGKGQIGIEQVADRGKKGLKIIAEDQGPGIPDIRKVMEDGFSTSGGLGAGLPGVKRLMDEFSLNSVAGEGTEIQAIKWLR
Turning to B3, the binding result with PrkD (B. subtilis) and with PtpZ (B. subtilis 168) was “binds” throughout.

B4: MinD (protein, UniProt Q01464 1-268)
chain: T6 sequence
With B4, the binding result with PtpZ (B. subtilis 168) is reported as “binds”.

B5: YabT (enzyme, UniProt P37562 1-338)
chain: MMNDALTSLACSLKPGTTIKGKWNGNTYTLRKQLGKGANGIVYLAETSDGHVALKVSDDSLSITSEVNVLKSFSKAQSVTMGPSFFDTDDAYIPSANTKVSFYAMEYIKGPLLLKYVSDKGAEWIPVLMIQLLSSLSVLHQQGWIFGDLKPDNLIVTGPPARIRCIDVGGTTKEGRAIKEYTEFYDRGYWGYGTRKAEPSYDLFAVAMIMINSVHKKEFKKTNQPKEQLRSLIEGNPLLQKYKKALFSALNGDYQSADEMKKDMLDAGQKAAQRKQPIKASPQPATRQRQQKPRQGKITKTRYTPKQKPAKSGGLFETTLIVISVLALYFAYIIFFLI
For the molecule B5, the binding result in the experiment with PtpZ (B. subtilis 168) and with MinD (B. subtilis 168) was “binds” throughout.

B6: DegS (enzyme, UniProt P13799 1-385)
chain: MNKTKMDSKVLDSILMKMLKTVDGSKDEVFQIGEQSRQQYEQLVEELKQIKQQVYEVIELGDKLEVQTRHARNRLSEVSRNFHRFSEEEIRNAYEKAHKLQVELTMIQQREKQLRERRDDLERRLLGLQEIIERSESLVSQITVVLNYLNQDLREVGLLLADAQAKQDFGLRIIEAQEEERKRVSREIHDGPAQMLANVMMRSELIERIFRDRGAEDGFQEIKNLRQNVRNALYEVRRIIYDLRPMALDDLGLIPTLRKYLYTTEEYNGKVKIHFQCIGETEDQRLAPQFEVALFRLAQEAVSNALKHSESEEITVKVEITKDFVILMIKDNGKGFDLKEAKEKKNKSFGLLGMKERVDLLEGTMTIDSKIGLGTFIMIKVPLSL
As for B6, the binding entry in the experiment with SpoIIE (B. subtilis 168) is given as “binds”.
